The target in the experiment is ORF20-BirA (KSHV ORF20 with the BirA R118G biotin ligase fused at its C-terminus) (KSHV (human herpesvirus 8)). As to the kind of experiment: proximity labelling.

Here are results for two molecules from publication doi:10.1101/2020.10.06.328641.

Results are given in words; binding and its absence hold for the method and conditions named. Binding seen in cells or lysates may run through a third protein. Here binding means that the protein was enriched with, or labelled near, the bait; the list need not be complete.

B1: KSHV ORF59, DNA polymerase processivity factor (protein, UniProt F5HID2 1-396)
chain: MPVDFHYGVRVDVTLLSKIRRVNEHIKSATKTGVVQVHGSACTPTLSVLSSVGTAGVLGLRIKNALTPLVGHTEGSGDVSFSFRNTSVGSGFTHTRELFGANVLDAGIAFYRKGEACDTGAQPQFVRTTISYGDNLTSTVHKSVVDQKGILPFHDRMEAGGRTTRLLLCGKTGAFLLKWLRQQKTKEDQTVTVSVSETLSIVTFSLGGVSKIIDFKPETKPVSGWDGLKGKKSVDVGVVHTDALSRVSLESLIAALRLCKVPGWFTPGLIWHSNEILEVEGVPTGCQSGDVKLSVLLLEVNRSVSAEGGESSQKVPDSIPDSRRQPELESPDSPPLTPVGPFGPLEDASEDAASVTSCPPAAPTKDSTKRPHKRRSDSSQSRDRGKVPKTTFNPLI
Turning to B1, the binding entry was “binds”.

B2: OASL (protein, UniProt Q15646 1-514)
chain: MALMQELYSTPASRLDSFVAQWLQPHREWKEEVLDAVRTVEEFLRQEHFQGKRGLDQDVRVLKVVKVGSFGNGTVLRSTREVELVAFLSCFHSFQEAAKHHKDVLRLIWKTMWQSQDLLDLGLEDLRMEQRVPDALVFTIQTRGTAEPITVTIVPAYRALGPSLPNSQPPPEVYVSLIKACGGPGNFCPSFSELQRNFVKHRPTKLKSLLRLVKHWYQQYVKARSPRANLPPLYALELLTIYAWEMGTEEDENFMLDEGFTTVMDLLLEYEVICIYWTKYYTLHNAIIEDCVRKQLKKERPIILDPADPTLNVAEGYRWDIVAQRASQCLKQDCCYDNRENPISSWNVKRARDIHLTVEQRGYPDFNLIVNPYEPIRKVKEKIRRTRGYSGLQRLSFQVPGSERQLLSSRCSLAKYGIFSHTHIYLLETIPSEIQVFVKNPDGGSYAYAINPNSFILGLKQQIEDQQGLPKKQQQLEFQGQVLQDWLGLGIYGIQDSDTLILSKKKGEALFPAS
As for B2, the binding entry is listed as “binds”.
